Among the data in PubChem BioAssay AID1487 (National Center for Advancing Translational Sciences (NCATS), 2009) are AC50 values, retold here.

The other results are listed elsewhere or left out. Shown are side measurements of this screen, not its main read-out; they come without a call. Most of these compounds were active or inconclusive in the main read-out, so they are no random draw. Words in brackets tell the shape of the fitted curve; partial curves, single points and poor fits give uncertain potencies.

A short description of this assay: qHTS Assay for Modulators of Lamin A Splicing. Conditions: HeLa LMNA splicing GFP/RFP minigene ratio, 48 h. A digest of the protocol:
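S3 HeLa cells stably expressing lamin A-EGFP splicing minigene plus DsRed2, 600 cells/well, 48 h compound exposure at 37C. Laser-scanning cytometry; analysed as GFP (500-530 nm)/RFP (575-640 nm) total intensity ratio; 0.5% DMSO vehicle.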
On the technique in general: qHTS replaces the single test concentration by a dilution series.

Where [1] appears, read: measured here: GFP splicing reporter channel.
Setting [2] is: measured here: RFP viability control channel.

As a reminder, the AC50 is the midpoint of the concentration-response curve, whichever way the signal moves. On to `O=C(COC(=O)/C=C/c1ccc(Cl)cc1)Nc1ccccc1`, for which the AC50 was 0.0447 µM [falling, full curve, poor fit] under setting [1] and 8.91 µM [rising, partial curve, poor fit] under setting [2]. Regarding `Cc1ccc(Cl)cc1N1CCN(C(=O)COCc2cc(-c3ccc4c(c3)OCO4)on2)CC1`, the AC50 reads like this: under setting [1], 35.5 µM [rising, partial curve]; under setting [2], 28.2 µM [rising, partial curve]. Regarding `Cc1cc(NC(=O)CCC(=O)N(Cc2ccco2)C(C(=O)NC2CCCCC2)c2cccs2)no1` (stereo unspecified), under setting [1], the AC50 was 35.5 µM [rising, single point]. As for `Cc1ccc(S(=O)(=O)N2CCCCC2C(=O)N2CCN(Cc3ccccc3)CC2)cc1` (stereo unspecified), the AC50 under setting [2] was 15.8 µM [rising, single point].

For the compound `Nc1ccccc1S(=O)(=O)NC1=NCCCCC1`, the AC50 under setting [2] is 35.5 µM [rising, single point]. On to `CC(=NCc1ccco1)c1c(C(F)(F)F)[nH]n(-c2nc3ccccc3s2)c1=O`, for which the AC50 under setting [2] is 0.1 µM [falling, full curve, poor fit]. For `Cc1ccc2nc(NC(=O)C3CCN(S(=O)(=O)c4cc([N+](=O)[O-])ccc4Cl)CC3)sc2c1`, the AC50 was 14.1 µM [rising, single point] under setting [1] and 31.6 µM [rising, single point] under setting [2]. `CN(C)c1ncc2nc(-c3ccc(Cl)cc3)c(=O)n(Cc3cccs3)c2n1`: the AC50 under setting [1] was 7.08 µM [falling, partial curve] and the AC50 under setting [2] is 6.31 µM [falling, partial curve]. On to `CCOC(=O)c1[nH]c2ccc(OC)cc2c1NC(=O)C(C)N1CCC2(CC1)OCCO2` (stereo unspecified), for which, under setting [2], the AC50 was 2.51 µM [falling, partial curve, poor fit]. Consider `CCN(CC)CCNC(=O)c1ccc2c(=O)n3nc(Nc4ccccc4)sc3nc2c1`, for which the AC50 under setting [2] was 31.6 µM [rising, single point]. Consider `Cc1ccc(Nc2ccc(S(=O)(=O)N3CCOCC3)cc2[N+](=O)[O-])c(C)c1`, for which the AC50 was 20 µM [rising, partial curve, poor fit] under setting [1] and 17.8 µM [rising, partial curve] under setting [2]. As to `Cc1ccn2c(NC3CCCC3)c(-c3ccccn3)nc2c1`, under setting [2], the AC50 was 14.1 µM [rising, single point].

As to `COc1cccc(-c2csc(N3CCN(C(=O)Nc4ccccc4Cl)CC3)n2)c1`, the AC50 is 35.5 µM [falling, partial curve] under setting [1] and 35.5 µM [falling, single point] under setting [2]. With `CC(Sc1nc(N)cc(=O)[nH]1)C(=O)Nc1cccc(Cl)c1` (stereo unspecified), the AC50 under setting [1] is 0.00501 µM [falling, full curve, poor fit]. As for `O=C(Nc1ccccc1)c1cccnc1NCCc1ccccc1`, the AC50 under setting [2] is 0.0126 µM [rising, full curve, poor fit]. As to `COc1cccc(NC(=O)CSC(N)=O)c1`, the AC50 under setting [2] is 0.00316 µM [falling, full curve, poor fit].

For the compound `O=[N+]([O-])c1ccc(-c2cnc(NO)nc2)cc1`, under setting [2], the AC50 was 2.82 µM [rising, partial curve, poor fit].

Take `O=C(/C=C/c1ccco1)Oc1cc(Br)cc(/C=N/NC(=O)c2ccccc2O)c1`: the AC50 under setting [2] was 5.62 µM [rising, partial curve]. Turning to `CCOc1ccccc1/C=C/C(=O)c1ccc(Cl)cc1`, the AC50 by setting is: under setting [1], 35.5 µM [falling, single point]; under setting [2], 35.5 µM [falling, single point]. As to `CC1CC(C)CN(C(=O)C(NS(=O)(=O)c2ccc(Br)s2)c2ccccc2)C1` (stereo unspecified), the half-maximal activity concentration (AC50) is, setting by setting: under setting [1], 22.4 µM [rising, single point]; under setting [2], 31.6 µM [rising, single point]. For the compound `O=C(Nc1ccc(C(=O)OCc2cc(=O)n3c4c(sc3n2)CCCC4)cc1)c1cccc(F)c1`, the AC50 under setting [1] was 3.16 µM [rising, single point].

In the case of `S=C(Nc1cccc(Cl)c1Cl)N1CCC2(CC1)OCCO2`, the AC50 under setting [2] is 5.62 µM [falling, single point]. Take `COC(=O)c1ccc(C(=O)OC)c(NC(=O)C(C)(C)C)c1`: under setting [1], the AC50 was 22.4 µM [falling, single point]. For `Cc1cccn2c(Nc3ccccc3)c(-c3ccccn3)nc12`, the AC50 reads like this: under setting [1], 35.5 µM [rising, single point]; under setting [2], 31.6 µM [rising, single point].

Regarding `O=C(CSc1nnc(-c2ccc(Cl)cc2)n1Cc1ccco1)Nc1ccc2c(c1)OCCO2`, under setting [1], the concentration at half-maximal activity (AC50) is 35.5 µM [rising, single point]. Regarding `CC(C)(C)c1ccc(C(=O)CC(=O)c2cc(Cl)ccc2O)cc1`, the AC50 is 12.6 µM [rising, single point] under setting [1] and 12.6 µM [rising, partial curve] under setting [2]. Regarding `O=C(CCc1[nH]c2ccccc2c1Sc1ccccc1)NCCO`, the AC50 under setting [2] was 5.62 µM [falling, partial curve, poor fit]. With `COc1ccc([N+](=O)[O-])c2c(=O)ccoc12`, the AC50 by setting is: under setting [1], 22.4 µM [rising, single point]; under setting [2], 0.501 µM [rising, partial curve]. For `CN(C1CCCCC1)S(=O)(=O)c1ccc(NC(=O)c2ccc(Br)o2)cc1`, the AC50 under setting [2] was 17.8 µM [rising, partial curve, poor fit]. With `CCSC1(SCC)N=C(N)C2(C#N)C(c3ccc(F)cc3)C12C#N` (stereo unspecified), the AC50 by setting is: under setting [1], 11.2 µM [falling, partial curve]; under setting [2], 11.2 µM [falling, partial curve]. Take `Cc1ccc(-c2noc(CCC(=O)NCC3CCN(Cc4cccc(C)c4)CC3)n2)cc1`: the AC50 under setting [2] is 11.2 µM [rising, partial curve]. For the compound `O=C(Nc1ccc(S(=O)(=O)N(Cc2ccccc2)c2ccccc2)cc1)c1ccc(F)cc1`, the AC50 under setting [1] is 10 µM [falling, partial curve, poor fit]. For the compound `Cc1nc2ccccc2cc1C(=O)N/N=C/c1ccco1`, under setting [2], the AC50 was 6.31 µM [rising, single point].

As to `O=C(c1cc2nc(-c3ccc(F)cc3)cc(C(F)(F)F)n2n1)N1CCCCC1c1cccnc1` (stereo unspecified), the AC50 under setting [1] was 3.16 µM [falling, single point] and the AC50 under setting [2] is 4.47 µM [falling, partial curve, poor fit]. Turning to `O=C(CCc1ccccc1)N1CCc2c([nH]c3ccccc23)C1c1ccc(F)cc1` (stereo unspecified), the AC50 under setting [2] is 25.1 µM [rising, partial curve].

For `CCOC(=O)NC(NC(=S)Nc1ccc(OCC)cc1)C(Cl)(Cl)Cl` (stereo unspecified), the half-maximal activity concentration (AC50) under setting [2] is 3.98 µM [rising, single point]. `CN1C(=O)c2ccccc2Sc2ccc(NC(=O)c3ccc(C#N)cc3)cc21`: the AC50 under setting [1] is 35.5 µM [falling, single point]. Turning to `CCn1c(CSCc2ccc(C)cc2)nnc1SCC(=O)N1CCN(c2ccccc2)CC1`, under setting [2], the AC50 is 15.8 µM [rising, single point]. As to `COc1ccc(C(CNC(=O)COc2ccccc2-c2ccccc2)N2CCOCC2)cc1` (stereo unspecified), under setting [2], the AC50 was 12.6 µM [rising, partial curve]. The same measure, in the same setting: next, `Nc1ccccc1Sc1ccc(C(=O)c2ccccc2C(=O)O)cc1[N+](=O)[O-]`: 0.2 µM [falling, partial curve]. In the case of `Cc1cc(C)n(-c2ccc(C(=O)N3CCc4ccccc43)cc2)n1`, the AC50 reads like this: under setting [1], 35.5 µM [rising, single point]; under setting [2], 35.5 µM [rising, single point]. For `Cc1cc(C)c(/C=C2\C(=O)Nc3ccccc32)[nH]1`, the AC50 is 31.6 µM [rising, single point] under setting [1] and 20 µM [rising, single point] under setting [2]. As for `CN/C(=C\[N+](=O)[O-])NCCSCc1csc(CN(C)C)n1`, under setting [1], the AC50 is 14.1 µM [falling, single point]. `O=C(CCCCCNc1nc(=S)[nH]c2ccccc12)NCc1ccccc1Cl`: the AC50 by setting is: under setting [1], 1.26 µM [rising, partial curve, poor fit]; under setting [2], 0.794 µM [rising, full curve, poor fit].

As for `CC(C)(C)NC(=O)C1CCN(C(=O)c2ccc(-c3ccccc3)cc2)CC1`, the AC50 was 20 µM [falling, partial curve] under setting [1] and 25.1 µM [falling, partial curve] under setting [2]. On to `Cc1cccc(C(=O)Nc2ccc(S(=O)(=O)N3CCCCC3c3cccnc3)cc2)c1` (stereo unspecified), for which the AC50 under setting [2] was 0.1 µM [rising, full curve, poor fit].

Consider `O=C(Nc1nnc(-c2ccccc2)o1)c1cc(-c2cccs2)nc2ccccc12`, for which the AC50 is 0.794 µM [rising, full curve, poor fit] under setting [1] and 6.31 µM [rising, full curve] under setting [2]. As to `Cc1cccc(C(=O)Nc2ccc(C(=O)/C=C/c3cccnc3)cc2)c1`, the AC50 under setting [1] was 35.5 µM [falling, single point] and the AC50 under setting [2] is 35.5 µM [falling, single point]. Consider `CN1/C(=C\C(=O)Nc2ccc(Br)cc2)C(C)(C)c2ccccc21`, for which the AC50 reads like this: under setting [1], 15.8 µM [falling, partial curve]; under setting [2], 14.1 µM [falling, single point].

`Cc1ccc(CNC(=O)C(C)n2c(=O)cc(-c3ccccc3)c3c(C)nn(C)c32)cc1` (stereo unspecified): the concentration at half-maximal activity (AC50) under setting [2] was 12.6 µM [falling, single point]. On to `COc1ccc(-n2c(=O)c(-c3ccc(Cl)cc3)nc3cnc(N4CCNCC4)nc32)cc1`, for which the AC50 runs as follows: under setting [1], 22.4 µM [falling, single point]; under setting [2], 17.8 µM [falling, partial curve]. In the case of `O=C(CN(C1CC1)S(=O)(=O)c1ccc(S(=O)(=O)NC2CCCCC2)cc1)Nc1ccccc1`, the AC50 was 15.8 µM [rising, single point] under setting [1] and 31.6 µM [rising, single point] under setting [2]. As for `CCOc1ccc(S(=O)(=O)N2CCN(c3ccccc3F)CC2)c2cccnc12`, the AC50 under setting [1] is 35.5 µM [rising, single point] and the AC50 under setting [2] is 31.6 µM [rising, single point].
